# According to PubChem BioAssay AID1381 (University of Pittsburgh Molecular Library Screening Center, 2008):
# The other results are listed elsewhere or left out. Some results for these compounds are left out of this collection, so the calls shown say nothing about other tests.
# Experiment: inhibitors of GR-EGFP nuclear translocation, primary screen, dynein cargo transport inhibitor project, imaging, high-content, 3617.4 mouse cells (AID 1381)
# Settings: stimulated with dexamethasone, 1 µM
# [1] = measured here: cell count per field, at 20 µM
# [2] = measured here: cytoplasmic GR-EGFP intensity, at 20 µM, stronger effect = higher value
# [3] = measured here: nuclear GR-EGFP intensity, at 20 µM, stronger effect = lower value
SMILES,z-score [1],z-score [2],z-score [3],"z-score (measured here: cell count per field, at 50 µM)","z-score (measured here: cytoplasmic GR-EGFP intensity, at 50 µM, stronger effect = higher value)","z-score (measured here: nuclear GR-EGFP intensity, at 50 µM, stronger effect = lower value)"
O=C(NCC1(N2CCCCC2)CCCCC1)c1cc([N+](=O)[O-])ccc1Cl,0.212,-0.103,-0.496,–,–,–
CC(C)N1C(=O)CC2(CCN(CCOC(=O)C(O)(c3ccccc3)c3ccccc3)CC2)C1=O,0.375,-0.219,-0.115,–,–,–
CCN(CC)CC(C)C(C)OC(=O)C(O)(c1ccccc1)c1ccccc1 (stereo not drawn),0.829,-0.176,-0.114,–,–,–
Cc1ccccc1C(=O)NCC1(N2CCCCC2)CCCCC1,-1.37,-0.254,0.13,–,–,–
CN(C)C1CCCC1OC(=O)C(O)(c1ccccc1)c1ccccc1 (stereo not drawn),-0.64,-0.168,0.228,–,–,–
C=CCN1CCN(CCOC(=O)C(O)(c2ccccc2)c2ccccc2)CC1,-0.42,-0.164,0.526,–,–,–
CCN1CCCC(OC(=O)C2(O)c3ccccc3C=Cc3ccccc32)C1 (stereo not drawn),-0.541,-0.202,-0.111,–,–,–
COc1cccc(C(=O)NCC2(N3CCCCC3)CCCCC2)c1,-0.0786,-0.373,0.112,–,–,–
O=C(OC1CN2CCC1CC2)C(CO)(c1ccccc1)c1ccccc1 (stereo not drawn),–,–,–,-0.372,-0.229,-0.783
COc1ccc(Br)c(C(=O)NCC2(N3CCCCC3)CCCCC2)c1,0.578,-0.163,-0.449,–,–,–
CN(C)c1cccc(C(=O)NCC2(N(C)C)CCCCC2)c1,0.591,-0.402,0.0187,–,–,–
